Laboratory results published in patent US11738065B2, “Polypeptides and analogues thereof for use in the treatment of diabetes and bone disorders” (UNIVERSITY OF ULSTER, priority 2015, dated 2023).
Some of these results come from one statement about several compounds together.

Test system: SaOS-2 cells
Assay: TGF-β release from SaOS-2 cells
Type: cell-based, Human
Conditions: SaOS-2 cells, 8 hours, P<0.01
Procedure: Human osteoblast SaOS-2 cells [sourced from The European Collection of Cell Cultures (ECACC)] were seeded at a density of 2e5 cells/well in 24 well plates [Nunc, Roskilde, Denmark]. The cells were incubated in media [Life Technologies] supplemented with 10% FBS. Before adding test peptides of the invention, the media were changed with fresh 0.1% FBS-containing media 24 h previously. On the day of experimentation, media were removed and 1 ml of respective peptides of the invention GIP/Xenin, GIP/Xenin Asp and GIP/Xenin Glu [(DAla2)GIP/xenin-8-Gln, (DAla2)GIP/xenin-8-Gln(L-Asp), and (DAla2)GIP/xenin-8-Gln(L-Glu) respectively] (1e-12-1e-6 M) were added to each well. The plates were then incubated at 37° C. for a period of 8 hours. After incubation, media was collected and TGF-β released in the supernatant measured using a TGF-β Immunoassay kit (Quantikine, R&D Systems) according to the manufacturer's instructions. The concentration of TGF-β was calculated from a standard curve of recombinant human TGF-β ranging from […].

| Substance | Concentrations inducing significant TGF-β release [nM] |
| --- | --- |
| TYR-(d)ALA-GLU-GLY-THR-PHE-ILE-SER-ASP-TYR-SER-ILE-ALA-MET-HIS-PRO-GLN-GLN-PRO-TRP-ILE-LEU-GLY-ALA-ALA-ASP-ASP-ASP-ASP-ASP-ASP (YAEGTFISDYSIAMHPQQPWILGAADDDDDD; D-Ala2; Gln side-chain L-Asp modification; listed as Homo sapiens) [GIP/Xenin Asp] | 10 to 1000 |
| TYR-(d)ALA-GLU-GLY-THR-PHE-ILE-SER-ASP-TYR-SER-ILE-ALA-MET-HIS-PRO-GLN-GLN-PRO-TRP-ILE-LEU-GLY-ALA-ALA-GLU-GLU-GLU-GLU-GLU-GLU (YAEGTFISDYSIAMHPQQPWILGAAEEEEEE; D-Ala2; Gln side-chain L-Glu modification; listed as Homo sapiens) [GIP/Xenin Glu] | 10 to 1000 |
